According to publication PMC6199344:
Results are given in words; binding and its absence hold for the method and conditions named. Binding seen in cells or lysates may run through a third protein. Some entries that bind do so weakly or less than the wild type.

Chains of the proteins cited; added tags and fusions are not shown.
UniProt Q13148: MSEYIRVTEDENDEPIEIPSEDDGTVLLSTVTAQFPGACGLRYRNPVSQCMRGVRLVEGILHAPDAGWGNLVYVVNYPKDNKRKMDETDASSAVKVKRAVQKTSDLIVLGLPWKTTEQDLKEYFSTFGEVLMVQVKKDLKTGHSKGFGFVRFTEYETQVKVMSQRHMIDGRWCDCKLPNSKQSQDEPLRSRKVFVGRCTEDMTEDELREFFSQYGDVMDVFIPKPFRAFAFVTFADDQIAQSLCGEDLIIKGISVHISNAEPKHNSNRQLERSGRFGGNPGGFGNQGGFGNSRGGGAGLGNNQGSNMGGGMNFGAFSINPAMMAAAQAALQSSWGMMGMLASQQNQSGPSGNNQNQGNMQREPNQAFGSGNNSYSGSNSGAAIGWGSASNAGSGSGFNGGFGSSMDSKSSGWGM
UniProt O00472: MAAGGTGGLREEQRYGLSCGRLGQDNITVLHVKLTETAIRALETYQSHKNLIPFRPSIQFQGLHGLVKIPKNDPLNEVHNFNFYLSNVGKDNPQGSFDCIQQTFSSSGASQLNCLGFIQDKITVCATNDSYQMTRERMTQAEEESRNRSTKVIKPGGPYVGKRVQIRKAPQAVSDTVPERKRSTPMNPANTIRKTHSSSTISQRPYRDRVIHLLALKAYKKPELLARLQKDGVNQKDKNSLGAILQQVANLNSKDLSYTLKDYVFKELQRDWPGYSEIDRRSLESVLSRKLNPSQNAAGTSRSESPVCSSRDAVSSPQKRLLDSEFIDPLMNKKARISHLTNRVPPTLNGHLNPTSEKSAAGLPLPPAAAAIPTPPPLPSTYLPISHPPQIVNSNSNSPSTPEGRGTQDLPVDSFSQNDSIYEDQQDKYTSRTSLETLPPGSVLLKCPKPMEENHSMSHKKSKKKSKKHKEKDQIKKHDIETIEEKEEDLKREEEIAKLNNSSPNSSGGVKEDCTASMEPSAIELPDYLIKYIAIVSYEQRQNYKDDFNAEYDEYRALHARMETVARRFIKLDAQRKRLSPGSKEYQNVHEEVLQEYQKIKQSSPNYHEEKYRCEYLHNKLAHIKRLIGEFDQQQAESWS

Target: TAR DNA-binding protein 43 (human (endogenous in HEK293)) (UniProt Q13148)
Assay: co-IP; endogenous proteins, nuclear extract of HEK293 TetOn-GFP cells without doxycycline; anti-TDP-43 mAb 5028 or mouse IgG control on Dynabeads Protein G, 4 °C overnight, Pierce IP lysis buffer; immunoblot for ELL, ELL2, TDP-43

ELL2 (from UniProt O00472 1-640)
binding: binds
